This data set is described as follows: in vivo. The conditions noted are these: rat; for AUC: AUCplasma.
[1] abbreviates: inhaled or intranasal, 2.5 mg/kg.

SMILES strings stand for the structures.

As to `CN1CC[C@]23c4c5ccc(O)c4O[C@H]2[C@@H](O)C=C[C@H]3[C@H]1C5` [morphine], the AUC reads like this: (inhaled or intranasal, 1 mg/kg) 105 ng·h/mL; under setting [1], 258 ng·h/mL; (inhaled or intranasal, 5 mg/kg) 478 ng·h/mL; (ip, 1 mg/kg) 104 ng·h/mL; (ip, 2.5 mg/kg) 324 ng·h/mL; (ip, 5 mg/kg) 698 ng·h/mL. In addition, the maximum concentration (Cmax) is 104 ng/mL (inhaled or intranasal, 1 mg/kg); 195 ng/mL under setting [1]; 322 ng/mL (inhaled or intranasal, 5 mg/kg); 97 ng/mL (ip, 1 mg/kg); 273 ng/mL (ip, 2.5 mg/kg); 579 ng/mL (ip, 5 mg/kg).

These data come from US20130142868A1 (priority 2010, published 2013).
